From doi:10.1101/2022.07.22.501140 come the findings set out here.

For data set [1], the target named is T1, DmBicc1 N-term (Drosophila melanogaster) (UniProt Q24009).
T1 sequence (looked up, limits assumed): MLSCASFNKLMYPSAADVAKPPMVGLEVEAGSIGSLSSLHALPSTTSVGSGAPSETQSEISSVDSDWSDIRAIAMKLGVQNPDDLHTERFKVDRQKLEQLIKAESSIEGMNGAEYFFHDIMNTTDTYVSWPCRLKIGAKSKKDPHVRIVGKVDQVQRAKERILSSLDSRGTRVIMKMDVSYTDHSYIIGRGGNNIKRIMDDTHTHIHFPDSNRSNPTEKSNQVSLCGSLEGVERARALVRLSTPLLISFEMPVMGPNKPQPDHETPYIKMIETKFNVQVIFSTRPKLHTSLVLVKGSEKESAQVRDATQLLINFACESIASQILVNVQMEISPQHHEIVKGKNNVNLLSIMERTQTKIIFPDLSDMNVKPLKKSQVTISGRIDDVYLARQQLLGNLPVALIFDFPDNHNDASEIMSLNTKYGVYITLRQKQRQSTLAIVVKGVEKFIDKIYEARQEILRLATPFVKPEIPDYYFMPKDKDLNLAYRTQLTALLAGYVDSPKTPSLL
Briefly: fluorescence polarization. The note with it: negative control. (In fluorescence polarisation assays a small probe gives low polarisation when free and higher when bound to something large.)

Data set [2] deals with DrBicc1 N-term (zebrafish (Danio rerio)). Kind of data set: fluorescence polarization.
For another data set, the target named is T2, HsBicc1 N-term (human) (UniProt Q9H694).
T2 sequence (looked up, limits assumed): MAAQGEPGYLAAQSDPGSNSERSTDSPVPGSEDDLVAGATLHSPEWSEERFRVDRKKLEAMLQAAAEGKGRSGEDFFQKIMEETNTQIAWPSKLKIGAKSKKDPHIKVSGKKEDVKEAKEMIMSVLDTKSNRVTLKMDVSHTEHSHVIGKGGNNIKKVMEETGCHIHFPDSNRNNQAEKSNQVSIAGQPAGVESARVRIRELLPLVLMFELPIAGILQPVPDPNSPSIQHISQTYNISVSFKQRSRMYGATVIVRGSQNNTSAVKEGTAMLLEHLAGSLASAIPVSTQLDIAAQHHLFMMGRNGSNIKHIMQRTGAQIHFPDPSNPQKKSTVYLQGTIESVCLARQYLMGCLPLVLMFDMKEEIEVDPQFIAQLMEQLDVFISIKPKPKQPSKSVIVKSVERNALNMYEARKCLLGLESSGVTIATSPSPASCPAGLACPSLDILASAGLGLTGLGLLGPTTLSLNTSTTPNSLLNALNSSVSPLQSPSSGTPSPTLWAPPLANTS
Briefly: fluorescence polarization. The note with it: negative control.

Data set [3] has as its target T3, XlBicc1 N-term (KH1-KH3) (Xenopus laevis) (UniProt A0A1L8FE49).
T3 sequence (looked up): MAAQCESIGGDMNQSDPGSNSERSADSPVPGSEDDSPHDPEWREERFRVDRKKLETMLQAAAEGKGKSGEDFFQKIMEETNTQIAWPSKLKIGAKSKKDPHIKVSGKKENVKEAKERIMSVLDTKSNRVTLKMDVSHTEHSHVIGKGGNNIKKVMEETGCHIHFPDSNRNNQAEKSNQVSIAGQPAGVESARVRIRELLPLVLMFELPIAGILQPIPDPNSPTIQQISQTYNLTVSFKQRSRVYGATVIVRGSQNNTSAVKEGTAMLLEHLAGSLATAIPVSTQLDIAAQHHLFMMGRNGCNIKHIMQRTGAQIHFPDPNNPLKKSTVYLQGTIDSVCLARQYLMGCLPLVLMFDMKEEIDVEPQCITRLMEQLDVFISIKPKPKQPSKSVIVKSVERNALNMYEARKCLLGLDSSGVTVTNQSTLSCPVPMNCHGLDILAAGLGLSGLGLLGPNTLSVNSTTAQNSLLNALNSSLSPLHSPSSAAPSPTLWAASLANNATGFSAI
Briefly: EMSA. Particulars: residues 1-506. For orientation: Mobility shift assays separate free from complexed probe on a gel.

Data set [4] has as its system XlBicc1-ΔKH1 (KH2-KH3) (Xenopus laevis). Kind of data set: fluorescence polarization.

Read-outs that look alike come from different tables or passages of the source. The exact form of at least one protein or probe is not confirmed. For some assays here: Negatives hold for the conditions tested. For some assays here: Weaker means in comparison with the reference protein, sequence or condition of that experiment. For some assays here: At least one verdict was read from the data and is not stated in words by the source. For some assays here: Tags and fusion partners may be left off the protein sequences shown.

Regarding “CGACUCUAGAAGGACUACGUGGCAUUCCAAUU [Cyclin B1 negative control RNA]”, the binding result (in data set [1]; in data set [2] (negative control); in the data set with HsBicc1 N-term (human)) was “binds more weakly” each time.

“CGACUCUAGAAGGUUGUACAUUAACAGCUCC [Cripto-1 leader variant]”: the binding result in data set [3] is “binds more weakly”; in data set [2] it was “no binding”; in data set [4], “no binding”.

Turning to “CUUAUUAGACACGUUGUACAUUAACAGCUCC [XlCripto-1 wild-type RNA site]”, the binding result in data set [2] (high affinity, also EMSA) is recorded as “binds”.

Regarding “CUUAUUAGACACGUUGUCGCGAAACAGCUCC [Cripto-1 loop variant]”, the binding result in data set [3] is listed as “binds more weakly”.
